From the supplement of paper PMC7666118
The list shows a part of the results.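 How the source made its calls: active = dose-dependent thermal stabilisation significant by F-test of dose-response against flat model at 10% FDR; inactive = not significant.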

Amino acid sequences for entries named in this document (tags omitted). A change or cut given only in a name is not applied to a line headed by its entry.
UniProt O00186: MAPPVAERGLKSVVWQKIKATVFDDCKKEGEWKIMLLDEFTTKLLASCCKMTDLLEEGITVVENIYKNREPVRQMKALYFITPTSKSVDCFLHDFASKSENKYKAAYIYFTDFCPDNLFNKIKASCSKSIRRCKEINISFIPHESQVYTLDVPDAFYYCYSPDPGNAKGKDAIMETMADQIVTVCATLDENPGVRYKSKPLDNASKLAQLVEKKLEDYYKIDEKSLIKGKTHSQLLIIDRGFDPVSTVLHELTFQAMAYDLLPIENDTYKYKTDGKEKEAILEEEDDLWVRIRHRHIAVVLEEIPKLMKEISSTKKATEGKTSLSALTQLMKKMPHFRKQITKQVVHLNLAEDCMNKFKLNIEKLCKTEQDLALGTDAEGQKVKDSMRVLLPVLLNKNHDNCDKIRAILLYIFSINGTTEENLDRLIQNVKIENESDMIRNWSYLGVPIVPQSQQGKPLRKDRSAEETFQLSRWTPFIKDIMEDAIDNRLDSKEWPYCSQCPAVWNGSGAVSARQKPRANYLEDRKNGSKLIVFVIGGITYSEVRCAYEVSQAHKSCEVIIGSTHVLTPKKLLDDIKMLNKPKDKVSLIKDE
UniProt P81877: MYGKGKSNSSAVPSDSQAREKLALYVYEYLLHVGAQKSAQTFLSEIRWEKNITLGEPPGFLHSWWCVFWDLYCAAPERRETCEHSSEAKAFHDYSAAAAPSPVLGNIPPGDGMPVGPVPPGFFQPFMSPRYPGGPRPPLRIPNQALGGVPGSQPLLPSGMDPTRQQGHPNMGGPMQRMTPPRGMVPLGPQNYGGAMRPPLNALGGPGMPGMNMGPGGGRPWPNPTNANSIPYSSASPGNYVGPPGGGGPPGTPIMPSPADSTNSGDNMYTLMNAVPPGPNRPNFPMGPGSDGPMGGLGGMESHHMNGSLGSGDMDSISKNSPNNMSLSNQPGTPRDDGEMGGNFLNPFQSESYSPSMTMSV
UniProt P51532, whole entry: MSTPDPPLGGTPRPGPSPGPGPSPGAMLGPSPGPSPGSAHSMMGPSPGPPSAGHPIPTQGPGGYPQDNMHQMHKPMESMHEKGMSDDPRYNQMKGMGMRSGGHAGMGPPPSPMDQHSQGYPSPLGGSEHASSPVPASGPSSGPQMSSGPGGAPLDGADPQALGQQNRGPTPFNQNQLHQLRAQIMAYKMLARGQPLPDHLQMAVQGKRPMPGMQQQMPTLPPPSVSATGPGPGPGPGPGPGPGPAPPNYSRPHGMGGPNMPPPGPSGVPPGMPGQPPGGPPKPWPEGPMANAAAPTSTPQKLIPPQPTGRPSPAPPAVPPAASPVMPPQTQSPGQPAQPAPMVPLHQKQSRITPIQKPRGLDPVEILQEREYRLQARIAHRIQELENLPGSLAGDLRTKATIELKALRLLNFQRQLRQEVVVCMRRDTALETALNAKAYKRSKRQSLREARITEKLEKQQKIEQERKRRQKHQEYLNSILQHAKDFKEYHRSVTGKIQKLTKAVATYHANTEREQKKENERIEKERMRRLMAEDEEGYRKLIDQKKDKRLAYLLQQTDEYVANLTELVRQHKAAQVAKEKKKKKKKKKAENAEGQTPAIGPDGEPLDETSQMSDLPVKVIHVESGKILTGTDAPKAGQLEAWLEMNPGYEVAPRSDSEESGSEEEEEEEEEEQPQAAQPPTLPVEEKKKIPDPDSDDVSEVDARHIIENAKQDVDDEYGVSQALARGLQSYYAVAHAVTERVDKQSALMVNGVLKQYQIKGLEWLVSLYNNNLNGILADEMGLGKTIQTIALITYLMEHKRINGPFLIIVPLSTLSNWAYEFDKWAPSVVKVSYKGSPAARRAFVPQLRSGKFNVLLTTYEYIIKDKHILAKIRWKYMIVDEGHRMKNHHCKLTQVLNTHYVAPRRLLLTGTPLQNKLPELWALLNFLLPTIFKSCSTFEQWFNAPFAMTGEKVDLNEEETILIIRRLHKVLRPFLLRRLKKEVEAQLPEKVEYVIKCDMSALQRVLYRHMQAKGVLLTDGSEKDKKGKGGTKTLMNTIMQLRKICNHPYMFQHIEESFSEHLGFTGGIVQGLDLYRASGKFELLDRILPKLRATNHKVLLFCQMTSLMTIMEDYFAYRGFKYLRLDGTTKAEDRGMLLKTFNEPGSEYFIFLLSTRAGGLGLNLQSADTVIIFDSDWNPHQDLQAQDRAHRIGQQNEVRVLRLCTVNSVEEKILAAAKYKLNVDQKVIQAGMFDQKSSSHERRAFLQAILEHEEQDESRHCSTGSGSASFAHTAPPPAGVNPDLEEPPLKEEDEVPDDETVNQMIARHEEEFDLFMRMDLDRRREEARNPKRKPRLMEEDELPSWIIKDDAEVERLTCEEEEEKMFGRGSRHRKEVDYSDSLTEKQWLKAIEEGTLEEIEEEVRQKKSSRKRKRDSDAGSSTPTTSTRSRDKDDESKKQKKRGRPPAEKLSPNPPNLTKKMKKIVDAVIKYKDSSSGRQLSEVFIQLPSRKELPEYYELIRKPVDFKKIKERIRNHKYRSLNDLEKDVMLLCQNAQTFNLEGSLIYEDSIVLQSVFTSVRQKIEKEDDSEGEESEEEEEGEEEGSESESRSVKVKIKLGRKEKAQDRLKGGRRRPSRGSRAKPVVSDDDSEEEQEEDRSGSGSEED
UniProt Q92925, whole entry: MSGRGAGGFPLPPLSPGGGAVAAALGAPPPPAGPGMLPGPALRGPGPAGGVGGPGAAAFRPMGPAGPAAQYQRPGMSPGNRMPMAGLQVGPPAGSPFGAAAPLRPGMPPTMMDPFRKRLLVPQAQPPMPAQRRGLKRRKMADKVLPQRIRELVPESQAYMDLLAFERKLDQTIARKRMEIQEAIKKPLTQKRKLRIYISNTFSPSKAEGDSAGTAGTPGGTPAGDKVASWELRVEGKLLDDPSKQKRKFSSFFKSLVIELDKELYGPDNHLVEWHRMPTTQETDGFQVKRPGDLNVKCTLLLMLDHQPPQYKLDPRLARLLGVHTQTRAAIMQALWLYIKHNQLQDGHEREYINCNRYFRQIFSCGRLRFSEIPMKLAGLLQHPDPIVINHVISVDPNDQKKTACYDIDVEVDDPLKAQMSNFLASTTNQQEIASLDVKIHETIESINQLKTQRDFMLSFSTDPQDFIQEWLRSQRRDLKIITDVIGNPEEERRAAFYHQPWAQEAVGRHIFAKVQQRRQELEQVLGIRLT
UniProt Q05519: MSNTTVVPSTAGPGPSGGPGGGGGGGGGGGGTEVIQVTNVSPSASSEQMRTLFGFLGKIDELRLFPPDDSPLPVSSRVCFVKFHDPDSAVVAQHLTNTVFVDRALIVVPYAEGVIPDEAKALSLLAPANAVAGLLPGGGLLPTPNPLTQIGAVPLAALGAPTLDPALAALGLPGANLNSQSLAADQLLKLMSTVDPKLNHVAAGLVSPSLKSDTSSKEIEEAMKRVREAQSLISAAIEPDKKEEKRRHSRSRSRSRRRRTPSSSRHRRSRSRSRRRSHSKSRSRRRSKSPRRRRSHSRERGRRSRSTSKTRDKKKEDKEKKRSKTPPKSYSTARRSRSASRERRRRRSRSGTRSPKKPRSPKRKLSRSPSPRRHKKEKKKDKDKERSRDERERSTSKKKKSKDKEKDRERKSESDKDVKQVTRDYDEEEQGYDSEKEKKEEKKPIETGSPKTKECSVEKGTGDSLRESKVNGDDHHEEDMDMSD
UniProt Q9BXP5: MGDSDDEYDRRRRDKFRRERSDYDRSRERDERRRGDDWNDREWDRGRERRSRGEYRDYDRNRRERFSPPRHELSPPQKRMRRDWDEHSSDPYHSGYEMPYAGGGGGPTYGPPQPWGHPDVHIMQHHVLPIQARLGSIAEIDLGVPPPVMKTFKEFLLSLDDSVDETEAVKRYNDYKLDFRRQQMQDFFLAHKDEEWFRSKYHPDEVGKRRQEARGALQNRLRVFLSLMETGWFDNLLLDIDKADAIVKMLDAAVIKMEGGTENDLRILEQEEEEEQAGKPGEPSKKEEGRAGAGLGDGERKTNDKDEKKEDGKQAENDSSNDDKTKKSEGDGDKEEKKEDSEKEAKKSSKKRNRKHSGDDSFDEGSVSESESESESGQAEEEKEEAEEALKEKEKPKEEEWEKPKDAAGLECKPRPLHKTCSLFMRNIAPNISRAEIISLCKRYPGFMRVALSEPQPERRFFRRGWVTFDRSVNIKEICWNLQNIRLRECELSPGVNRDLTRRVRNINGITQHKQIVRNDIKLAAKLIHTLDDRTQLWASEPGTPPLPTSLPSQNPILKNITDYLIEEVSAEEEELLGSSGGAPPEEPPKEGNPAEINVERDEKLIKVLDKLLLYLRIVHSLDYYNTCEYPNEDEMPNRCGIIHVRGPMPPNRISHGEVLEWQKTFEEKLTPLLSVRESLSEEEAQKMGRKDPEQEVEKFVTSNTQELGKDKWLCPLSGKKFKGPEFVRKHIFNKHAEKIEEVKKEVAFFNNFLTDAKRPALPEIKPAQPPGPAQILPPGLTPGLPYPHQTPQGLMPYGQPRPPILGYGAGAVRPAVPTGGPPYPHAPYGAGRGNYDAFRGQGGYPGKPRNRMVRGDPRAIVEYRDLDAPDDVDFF
UniProt Q12962, whole entry: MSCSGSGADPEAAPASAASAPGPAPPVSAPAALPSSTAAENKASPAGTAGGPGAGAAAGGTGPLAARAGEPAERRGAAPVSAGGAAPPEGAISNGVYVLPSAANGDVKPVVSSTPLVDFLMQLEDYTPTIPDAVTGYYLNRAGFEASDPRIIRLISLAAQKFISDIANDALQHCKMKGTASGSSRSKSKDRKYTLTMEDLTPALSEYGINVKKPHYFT
UniProt P53814: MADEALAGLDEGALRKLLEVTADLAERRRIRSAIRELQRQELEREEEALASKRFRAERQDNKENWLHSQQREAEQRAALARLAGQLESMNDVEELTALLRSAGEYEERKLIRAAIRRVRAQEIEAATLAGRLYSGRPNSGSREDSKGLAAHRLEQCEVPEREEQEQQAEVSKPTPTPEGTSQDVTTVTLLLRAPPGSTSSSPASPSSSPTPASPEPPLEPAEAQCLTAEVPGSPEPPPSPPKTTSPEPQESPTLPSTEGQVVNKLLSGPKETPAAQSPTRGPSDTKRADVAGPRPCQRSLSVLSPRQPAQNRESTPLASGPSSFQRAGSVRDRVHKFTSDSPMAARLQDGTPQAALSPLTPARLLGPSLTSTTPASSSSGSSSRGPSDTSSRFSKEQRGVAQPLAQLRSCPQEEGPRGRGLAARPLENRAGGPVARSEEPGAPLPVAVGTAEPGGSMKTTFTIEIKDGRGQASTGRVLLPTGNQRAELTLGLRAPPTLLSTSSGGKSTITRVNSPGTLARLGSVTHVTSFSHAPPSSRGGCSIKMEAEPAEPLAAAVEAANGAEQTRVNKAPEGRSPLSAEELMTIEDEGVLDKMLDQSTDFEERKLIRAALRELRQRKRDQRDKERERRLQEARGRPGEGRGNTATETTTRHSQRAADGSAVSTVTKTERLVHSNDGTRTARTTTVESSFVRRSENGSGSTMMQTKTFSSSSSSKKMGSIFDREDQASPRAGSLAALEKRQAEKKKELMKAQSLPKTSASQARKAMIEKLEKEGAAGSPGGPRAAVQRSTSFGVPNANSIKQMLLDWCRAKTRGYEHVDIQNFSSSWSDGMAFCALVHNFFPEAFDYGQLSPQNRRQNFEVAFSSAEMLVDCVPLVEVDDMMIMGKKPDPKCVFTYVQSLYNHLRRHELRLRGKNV
UniProt Q5VSL9: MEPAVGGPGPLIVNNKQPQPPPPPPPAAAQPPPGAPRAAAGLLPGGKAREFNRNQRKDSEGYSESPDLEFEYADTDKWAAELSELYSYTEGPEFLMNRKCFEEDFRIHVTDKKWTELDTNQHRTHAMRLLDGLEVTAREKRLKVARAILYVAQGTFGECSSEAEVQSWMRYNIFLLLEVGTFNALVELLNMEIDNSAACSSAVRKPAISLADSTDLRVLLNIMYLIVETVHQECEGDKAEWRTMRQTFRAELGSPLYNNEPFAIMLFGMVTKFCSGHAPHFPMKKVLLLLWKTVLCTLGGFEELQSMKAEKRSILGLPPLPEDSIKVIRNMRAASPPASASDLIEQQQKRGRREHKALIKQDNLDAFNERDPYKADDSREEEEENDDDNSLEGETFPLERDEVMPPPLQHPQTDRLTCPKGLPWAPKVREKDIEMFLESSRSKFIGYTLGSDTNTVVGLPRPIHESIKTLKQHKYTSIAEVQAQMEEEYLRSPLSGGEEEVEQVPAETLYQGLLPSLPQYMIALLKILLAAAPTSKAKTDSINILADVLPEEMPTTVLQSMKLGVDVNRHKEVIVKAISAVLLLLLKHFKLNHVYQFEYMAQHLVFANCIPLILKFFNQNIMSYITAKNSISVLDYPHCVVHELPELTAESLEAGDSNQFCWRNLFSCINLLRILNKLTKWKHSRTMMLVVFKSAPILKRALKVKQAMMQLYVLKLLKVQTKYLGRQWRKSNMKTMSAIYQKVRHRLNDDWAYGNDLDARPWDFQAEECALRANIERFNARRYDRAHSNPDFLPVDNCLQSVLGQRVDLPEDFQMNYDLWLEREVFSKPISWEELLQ

Compound: Nc1nc2c(ncn2[C@@H]2O[C@H](COP(=O)(O)OP(=O)(O)OP(=O)(O)O)[C@@H](O)[C@H]2O)c(=O)[nH]1
Assay: dose-dependent thermal stabilisation call (2D-TPP, DLPTP, 10% FDR) (binary (1 = stabilised)); higher = stabilised by the compound
Details: system: Jurkat gel-filtered lysate; concentration range 1-500 µM
Description: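 2D thermal proteome profiling in gel-filtered Jurkat E6.1 lysate (2 mg/ml) treated with NaGTP (0, 1, 10, 100, 500 uM) for 10 min at room temperature, then heated 3 min at one of 12 temperatures (42-63.9 C). Soluble protein was quantified by TMT10 MS. The value is the DLPTP call of the paper: dose-dependent thermal stabilisation over all temperatures at 10% FDR (F-test of a dose-response against a flat model); one experiment, one call per tested protein.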

Row | Target | dose-dependent thermal stabilisation call
1 | SMARCC2 (UniProt Q8TAQ2) | inactive: 0
2 | SLC9A3R1 (UniProt O14745) | inactive: 0
3 | STUB1 (UniProt Q9UNE7) | inactive: 0
4 | SIKE1 (UniProt Q9BRV8) | inactive: 0
5 | SNRPA (UniProt P09012) | inactive: 0
6 | SPATA33 (UniProt Q96N06) | inactive: 0
7 | SPDL1 (UniProt Q96EA4) | inactive: 0
8 | SPG20 (UniProt Q8N0X7) | inactive: 0
9 | SLBP (UniProt Q14493) | active: 1
10 | STK38 (UniProt Q15208) | inactive: 0
11 | SLC4A7 (UniProt Q9Y6M7) | inactive: 0
12 | STXBP3 (UniProt O00186) | active: 1
13 | SNX16 (UniProt P57768) | inactive: 0
14 | STIL (UniProt Q15468) | inactive: 0
15 | SMAP1 (UniProt Q8IYB5) | inactive: 0
16 | SH3KBP1 (UniProt Q96B97) | inactive: 0
17 | SH3PXD2B (UniProt A1X283) | inactive: 0
18 | SSBP2 (UniProt P81877) | inactive: 0
19 | SPRYD4 (UniProt Q8WW59) | inactive: 0
20 | SMARCA4 (UniProt P51532) | inactive: 0

Reprinted from the listing for reference:
Row | Target | dose-dependent thermal stabilisation call
9 | SLBP (UniProt Q14493) | active: 1
10 | STK38 (UniProt Q15208) | inactive: 0
11 | SLC4A7 (UniProt Q9Y6M7) | inactive: 0
12 | STXBP3 (UniProt O00186) | active: 1
13 | SNX16 (UniProt P57768) | inactive: 0
14 | STIL (UniProt Q15468) | inactive: 0
15 | SMAP1 (UniProt Q8IYB5) | inactive: 0
16 | SH3KBP1 (UniProt Q96B97) | inactive: 0

(listing goes on)

Row | Target | dose-dependent thermal stabilisation call
21 | SMARCD2 (UniProt Q92925) | inactive: 0
22 | SPAG1 (UniProt Q07617) | inactive: 0
23 | SRSF7 (UniProt Q16629) | active: 1
24 | SMARCC1 (UniProt Q92922) | inactive: 0
25 | SYF2 (UniProt O95926) | inactive: 0
26 | SPC25 (UniProt Q9HBM1) | inactive: 0
27 | SORBS3 (UniProt O60504) | inactive: 0
28 | SRC (UniProt P12931) | inactive: 0
29 | SRSF11 (UniProt Q05519) | inactive: 0
30 | STK4 (UniProt Q13043) | inactive: 0
31 | SRRT (UniProt Q9BXP5) | inactive: 0
32 | SPG21 (UniProt Q9NZD8) | active: 1
33 | SPECC1 (UniProt Q5M775) | inactive: 0
34 | SLC4A1AP (UniProt Q9BWU0) | inactive: 0
35 | SNRNP70 (UniProt P08621) | active: 1
36 | TAF10 (UniProt Q12962) | inactive: 0
37 | TAF2 (UniProt Q6P1X5) | inactive: 0
38 | SMTN (UniProt P53814) | inactive: 0
39 | STRIP1 (UniProt Q5VSL9) | inactive: 0
40 | SSRP1 (UniProt Q08945) | inactive: 0
